{"sequences": {"note": "By UniProt entry, the sequences of proteins in these tests, tags left out.", "UniProt Q5T5D7": "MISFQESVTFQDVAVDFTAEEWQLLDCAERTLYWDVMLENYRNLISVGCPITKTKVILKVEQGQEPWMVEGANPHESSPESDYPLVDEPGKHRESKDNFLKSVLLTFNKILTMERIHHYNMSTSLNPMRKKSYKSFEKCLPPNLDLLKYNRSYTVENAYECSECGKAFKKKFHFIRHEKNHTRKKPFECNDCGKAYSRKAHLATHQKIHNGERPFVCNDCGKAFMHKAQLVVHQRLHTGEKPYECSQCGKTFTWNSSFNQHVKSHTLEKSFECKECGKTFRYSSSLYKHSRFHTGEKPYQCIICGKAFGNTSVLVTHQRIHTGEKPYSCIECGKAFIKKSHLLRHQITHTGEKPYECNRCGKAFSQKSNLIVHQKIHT", "UniProt P11940": "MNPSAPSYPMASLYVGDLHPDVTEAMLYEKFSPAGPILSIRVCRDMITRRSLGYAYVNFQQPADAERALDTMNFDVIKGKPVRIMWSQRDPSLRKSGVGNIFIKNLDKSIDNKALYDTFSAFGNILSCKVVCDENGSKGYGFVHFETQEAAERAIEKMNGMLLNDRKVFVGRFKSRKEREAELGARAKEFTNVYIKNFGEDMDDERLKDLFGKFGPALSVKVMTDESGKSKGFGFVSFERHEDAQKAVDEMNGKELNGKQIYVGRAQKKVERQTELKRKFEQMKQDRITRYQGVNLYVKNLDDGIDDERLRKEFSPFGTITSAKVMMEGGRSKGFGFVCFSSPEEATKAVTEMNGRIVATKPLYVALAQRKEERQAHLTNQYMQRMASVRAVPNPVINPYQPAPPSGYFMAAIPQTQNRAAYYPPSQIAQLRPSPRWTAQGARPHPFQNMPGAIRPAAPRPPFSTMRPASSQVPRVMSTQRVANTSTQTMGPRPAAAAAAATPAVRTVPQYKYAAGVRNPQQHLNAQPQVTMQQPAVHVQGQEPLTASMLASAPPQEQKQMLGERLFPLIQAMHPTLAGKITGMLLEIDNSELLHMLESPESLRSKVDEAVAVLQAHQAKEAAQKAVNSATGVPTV"}, "source": "paper doi:10.1101/2021.09.29.462476", "key": {"[1]": {"molecular_target": "T1, Nxf1 (human (endogenous in HEK293)) (UniProt Q9UBU9)", "T1 sequence": "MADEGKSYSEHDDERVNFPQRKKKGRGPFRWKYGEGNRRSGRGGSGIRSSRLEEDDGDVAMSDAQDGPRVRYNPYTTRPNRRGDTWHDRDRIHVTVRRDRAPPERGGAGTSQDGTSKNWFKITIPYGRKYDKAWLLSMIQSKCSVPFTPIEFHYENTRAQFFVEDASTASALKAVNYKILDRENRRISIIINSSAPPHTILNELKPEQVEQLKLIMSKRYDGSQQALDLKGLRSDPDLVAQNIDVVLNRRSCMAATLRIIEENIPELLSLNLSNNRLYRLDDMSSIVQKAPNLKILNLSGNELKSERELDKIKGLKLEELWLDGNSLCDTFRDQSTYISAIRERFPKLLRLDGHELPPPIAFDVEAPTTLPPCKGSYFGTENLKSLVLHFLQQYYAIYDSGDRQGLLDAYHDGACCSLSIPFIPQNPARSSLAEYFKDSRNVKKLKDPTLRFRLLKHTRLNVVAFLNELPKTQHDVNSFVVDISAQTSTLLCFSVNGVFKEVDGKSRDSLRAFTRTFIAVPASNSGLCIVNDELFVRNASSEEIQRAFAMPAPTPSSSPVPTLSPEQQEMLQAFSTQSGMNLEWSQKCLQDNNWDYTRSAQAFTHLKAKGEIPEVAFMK", "assay": "co-IP"}, "GFP-Znf684 (human)": {"molecular_target": "GFP-Znf684 (human) (UniProt Q5T5D7)", "assay": "co-IP"}}, "note": "No constants are given. Whether binding was seen depends on the method and setting. In cells and extracts the contact can be indirect. Some binding calls cover weakened binding; strength is not graded here.", "data": [{"substance": "GFP-Znf684 (from UniProt Q5T5D7 1-378)", "values": [{"measurement": "binding", "setting": "[1]", "result": "binds"}]}, {"substance": "PABPC1 (from UniProt P11940 1-636)", "values": [{"measurement": "binding", "setting": "GFP-Znf684 (human)", "result": "binds"}]}]}
